Binding data for one substance are collected here from paper PMC10320005, “In Campylobacter jejuni, a new type of chaperone receives heme from ferrochelatase” (Frontiers in Genetics, 2023).

The chains behind the UniProt entries cited, without tags or fusion partners. Where a name states a change or a piece, a line headed by the entry shows the natural chain unless it says otherwise.
UniProt Q0PBE7: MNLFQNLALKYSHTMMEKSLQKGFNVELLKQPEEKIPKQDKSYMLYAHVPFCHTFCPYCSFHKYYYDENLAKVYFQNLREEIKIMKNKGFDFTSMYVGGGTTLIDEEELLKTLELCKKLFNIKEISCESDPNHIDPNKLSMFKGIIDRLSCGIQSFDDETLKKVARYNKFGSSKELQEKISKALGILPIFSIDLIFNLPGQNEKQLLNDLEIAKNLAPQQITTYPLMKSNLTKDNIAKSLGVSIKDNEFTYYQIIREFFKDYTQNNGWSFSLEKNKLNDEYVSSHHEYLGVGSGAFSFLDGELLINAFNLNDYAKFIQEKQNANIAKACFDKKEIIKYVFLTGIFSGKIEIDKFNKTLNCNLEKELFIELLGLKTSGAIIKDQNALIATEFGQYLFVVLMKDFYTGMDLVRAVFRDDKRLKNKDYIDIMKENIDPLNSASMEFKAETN

In this assay the target is T1, C. jejuni PpfC fused at the N-terminus to Strep-tag (apo-PpfC-Strep) (Campylobacter jejuni NCTC 11168) (UniProt Q9PI08).
T1 sequence: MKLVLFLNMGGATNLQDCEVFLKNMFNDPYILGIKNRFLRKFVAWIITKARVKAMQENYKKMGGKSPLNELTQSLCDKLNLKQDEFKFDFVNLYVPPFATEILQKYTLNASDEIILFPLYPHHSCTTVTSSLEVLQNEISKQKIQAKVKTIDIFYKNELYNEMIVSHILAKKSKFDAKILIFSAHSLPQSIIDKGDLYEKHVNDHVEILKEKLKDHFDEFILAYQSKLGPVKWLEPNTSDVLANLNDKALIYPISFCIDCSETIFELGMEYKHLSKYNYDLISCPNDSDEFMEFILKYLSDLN
As to the kind of experiment: pull-down; apo-PpfC-Strep incubated 30 min with apo-CgdH2-His in buffer B (50 mM Tris-HCl, pH 8) at 4°C; loaded onto Strep-Tactin Sepharose; washed with buffer B with 400 mM NaCl and 10% glycerol; eluted with 5 mM desthiobiotin; fractions on SDS-PAGE; both purified.

No constants are given. Whether binding was seen depends on the method and setting. Binding calls can cover weak binding; strength is not graded here. Tags and fused reporters may be left off the sequences shown.

Regarding “C. jejuni CgdH2 linked at the C-terminus to His-tag (apo-CgdH2-His) (from UniProt Q0PBE7)”, the binding result is given as “binds”.
